In patent US8933270B2, “Use of docasatrienes, resolvins, and their stable analogs in the treatment of airway diseases and asthma” (The Brigham and Women's Hospital, Inc., priority 2002, dated 2015):

Assay: PD1 extraction from murine lung, LC-PDA-MS-MS quantitation
Set-up: species or system mice
Conditions: DHA 100 μg, 40 min, 37° C.

## CC/C=C\C[C@H](O)\C=C/C=C/C=C/C(O)C/C=C\C/C=C\CCC(=O)O (stereo in doubt) [PD1, 10,17S-dihydroxy-4,7,15,19-cis-11,13-trans-docosahexaenoic acid]
  increase of PD1 recovery on addition of exogenous DHA to homogenate of inflamed lungs ex vivo: approximately 5 fold
